Laboratory results as given in PubChem BioAssay AID2417 (National Center for Advancing Translational Sciences (NCATS), 2010).
In all, about 140,000 compounds went through this assay and about 4,300 (3.1%) were called active. The inconclusive results got no clear call from the source; some entries with a clear call stand among them for comparison.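 How the source made its calls: active means readout at or below -70, meaning at least 70% loss of cells showing the perinucleolar compartment, a nuclear body marking cancer cells; inconclusive means readout between -30 and a set limit; inactive means the rest.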

Assay: High Content Assay for Compounds that inhibit the Assembly of the Perinucleolar Compartment;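 further: plate controls were DMSO wells for no effect and camptothecin positive control wells for full effect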
Details: PC3M PTB-GFP, PNC prevalence imaging, 16 h; at 10 µM; stronger effect = lower value
Outline: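 Read-out is percentage of cells bearing a perinucleolar compartment, from automated 20x imaging of fixed, Hoechst-stained PC3M PTB-GFP cells. Cells were seeded 4 h, then exposed 16 h to compound (23 nl of library stock) in duplicate plates.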

Row | SMILES | activity change (PNC), negative = inhibition
1 | O=C(NCc1ccco1)c1ccc2c(c1)N(Cc1ccccc1)C(=O)CS2=O (stereo not given) | inconclusive: -34.5%
2 | CCC(=O)N1N=C(c2ccccc2)CC1c1ccc([N+](=O)[O-])cc1 (stereo not given) | inconclusive: -44%
3 | Cc1cc(NC(=O)c2ccc(Cl)cc2)no1 | inconclusive: -32.1%
4 | Cc1ccc(CNC(=O)CSc2n[nH]c(N)n2)cc1 | active: -92.8%
5 | CC1(C)CC(=O)C(C=Nc2ccc3[nH]ncc3c2)=C(O)C1 | inconclusive: -34.9%
6 | Cc1ccccc1CSCc1nc2ccccc2[nH]1 | inconclusive: -70.1%
7 | C=CCOc1c2ccc(C(=O)N(CC)c3ccc(OC)cc3)cc2nn1C | inconclusive: -65.4%
8 | COc1ccc(CCNC(=S)NC(=O)c2ccccc2)cc1OC | active: -101%
9 | O=C(O)COc1ccccc1C1C2C(=O)N(c3ccc(F)cc3)C(=O)C2ON1c1ccccc1 (stereo not given) | inactive: 59.4%
10 | Cc1occc1C(=O)NNC(=O)COc1ccc(Br)cc1Br | inconclusive: -39.6%
11 | Cc1ccsc1C(=O)NNC(=O)C1CC=CCC1C(=O)O (stereo not given) | inconclusive: -37%
12 | CCC(=O)Nc1cccc(-c2nc3ccccc3c(=O)o2)c1 | inconclusive: -36.1%
13 | CC(=O)c1cccc(NC(=O)CN2C(=O)COc3ccc(Cl)cc32)c1 | inconclusive: -68%
14 | COc1ccc(CN2C(=O)c3ccccc3C(/C=N\OCc3ccc(F)cc3)C2=O)cc1 (stereo not given) | inactive: 88%
15 | CC(C)(C)C(=O)OCCn1c(=O)c2cc3c(=O)n(CCOC(=O)C(C)(C)C)c(=O)c3cc2c1=O | inconclusive: -54.3%
16 | CN(Cc1ccccc1)c1nc(CN2CCOCC2)nc2scc(-c3ccccc3)c12 | inactive: -0.378%
17 | NC(=O)c1sc2nc3c(c(-c4ccco4)c2c1N)CCC3 | inconclusive: -48.7%
18 | N#CC1=C(N)OC2=C(C(=O)CCC2)C12C(=O)N1CCCc3cccc2c31 (stereo not given) | inconclusive: -69.8%
19 | CC1=C(C(=O)Nc2ccccc2)C(c2ccco2)C(C#N)=C(SCC(=O)Nc2cccc(C)c2C)N1 (stereo not given) | active: -82.4%
20 | COc1ccc(S(=O)(=O)N2CCSC2c2ccccc2)cc1 (stereo not given) | inactive: 29.6%
21 | CCn1c(SCC(=O)N2CCC(C)CC2)nnc1-c1ccc(S(=O)(=O)N2CCN(C)CC2)cc1 | inconclusive: -43.9%
22 | CCOC(=O)C1=C(C)NC(SC(C)=O)=NC1c1ccc(OC(C)=O)c(OC)c1 (stereo not given) | inconclusive: -71.5%
23 | CC(C)CCNC(=O)C1CCN(C(=O)N(C)C)CC1 | inconclusive: -30.5%

Row | SMILES | activity change (PNC), negative = inhibition
24 | CCCC(=O)Nc1ccc2c(c1)C(=O)NC2=O | inconclusive: -30.5%
25 | CC(=O)OCC1=C(C(=O)O)N2C(=O)[C@@H](NC(=O)Cc3cccs3)[C@H]2SC1 | inconclusive: -41.6%
26 | COC(=O)c1ccc(N2CCOCC2)c(F)c1 | inactive: 9.42%
27 | COc1cccc(N(C(=O)c2ccco2)C(C(=O)NC2CCCC2)c2ccc(N(C)C)cc2)c1 (stereo not given) | inconclusive: -77.4%
28 | COc1ccc(-c2nnc(SCC(=O)OC3CCCCC3)o2)cc1OC | inconclusive: -42.3%
29 | Cc1nc(N2CCN(C)CC2)c2c(C)c(C(=O)Nc3ccc(C)c(F)c3)sc2n1 | inconclusive: -79.2%
30 | Cc1[nH]c2ccccc2c(=O)c1CN(C)Cc1ccccc1 | inconclusive: -55.5%
31 | CCCCNC(=O)CSc1nnc(-c2ccc(S(=O)(=O)N3CCCC3)cc2)n1C | active: -100%
32 | CCN1C(=O)c2cccc3c(S(=O)(=O)Nc4ccccc4)ccc1c23 | inactive: -27.2%
33 | Cc1nn(CC(O)COc2ccc3c(c2)CCC3)c(C)c1C (stereo not given) | inconclusive: -34.8%
34 | O=c1c(N2CCOCC2)nsn1Cc1ccccc1 | inconclusive: -76.1%
35 | S=c1[nH]nc(-c2cccnc2)n1C1CCCCC1 | inactive: -15.4%
36 | COc1ccc(C2CC(c3ccccc3)=NN2C(=O)COC(=O)c2cccc(S(=O)(=O)N3CCOCC3)c2)cc1 (stereo not given) | inconclusive: -45.6%
37 | COc1ccc(NS(=O)(=O)c2ccc(N3CCCC3)c(NC(=S)Nc3cccc(C)c3C)c2)cc1 | inconclusive: -38.5%
38 | O=C(C(Cc1ccccc1)n1cccc1)N1CCc2ccccc21 (stereo not given) | inconclusive: -30.7%
39 | O=C1NCCc2c1[nH]c1c(Cl)ccc(Cl)c21 | inconclusive: -34.9%
40 | Cc1ccc(-c2cn(-c3ccccc3)c(SCC(=O)NC3CCS(=O)(=O)C3)n2)cc1C (stereo not given) | active: -83.3%
41 | C(=N\c1nccs1)/Nc1nccs1 | inactive: 72.3%
42 | COc1ccc(C2CC(c3ccccc3)=NN2C(=O)CN2N=NC3C(=O)N(c4cccc(F)c4)C(=O)C32)cc1 (stereo not given) | inactive: -3.75%
43 | O=C(c1ccc(F)cc1)N1CCCCC(Sc2nnnn2-c2ccccc2)C1=O (stereo not given) | inconclusive: -33%
44 | CCN1CCN(c2nc3ccccc3nc2C(C#N)C(=O)OC2CCCCC2)CC1 (stereo not given) | inactive: 44.8%
45 | Cc1nn(Cc2ccccc2)c(Cl)c1/C=N/NC(=O)CNc1cccc(C(F)(F)F)c1 | inactive: 18.3%

Part of the list above, with each value named.
O=C(C(Cc1ccccc1)n1cccc1)N1CCc2ccccc21 (stereo not given)
  activity change (PNC), negative = inhibition: inconclusive: -30.7%
O=C1NCCc2c1[nH]c1c(Cl)ccc(Cl)c21
  activity change (PNC), negative = inhibition: inconclusive: -34.9%
Cc1ccc(-c2cn(-c3ccccc3)c(SCC(=O)NC3CCS(=O)(=O)C3)n2)cc1C (stereo not given)
  activity change (PNC), negative = inhibition: active: -83.3%
